# According to PubChem BioAssay AID1671190 (National Center for Advancing Translational Sciences (NCATS), 2021):
# Protein sequences, listed by entry. Tags and fused reporters are not part of them. Lines headed by an entry give the natural chain unless they say otherwise; changes in a name come on top.
# UniProt P18054: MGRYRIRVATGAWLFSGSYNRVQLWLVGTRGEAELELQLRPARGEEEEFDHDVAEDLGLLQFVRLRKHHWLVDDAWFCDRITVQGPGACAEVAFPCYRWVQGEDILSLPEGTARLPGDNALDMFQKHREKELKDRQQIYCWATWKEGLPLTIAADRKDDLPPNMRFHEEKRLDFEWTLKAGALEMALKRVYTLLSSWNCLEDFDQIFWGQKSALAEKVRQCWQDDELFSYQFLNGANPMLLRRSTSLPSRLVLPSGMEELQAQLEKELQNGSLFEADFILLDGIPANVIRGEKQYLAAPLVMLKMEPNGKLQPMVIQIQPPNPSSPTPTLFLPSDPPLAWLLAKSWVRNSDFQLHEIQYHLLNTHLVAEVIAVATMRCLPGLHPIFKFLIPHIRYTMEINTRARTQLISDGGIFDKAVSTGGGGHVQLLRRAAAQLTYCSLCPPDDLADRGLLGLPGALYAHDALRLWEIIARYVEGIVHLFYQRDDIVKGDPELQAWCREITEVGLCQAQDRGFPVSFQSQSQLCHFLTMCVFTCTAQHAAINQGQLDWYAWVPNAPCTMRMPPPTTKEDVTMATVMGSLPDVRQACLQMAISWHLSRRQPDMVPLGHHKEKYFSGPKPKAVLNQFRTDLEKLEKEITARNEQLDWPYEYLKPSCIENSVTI
# The whole screen tested about 580,000 compounds, of which about 6,100 (1.1%) were called active. Inconclusive results, whose numbers are uncertain, are shown with a selection of clear calls. The call rests on the fitted dose curve; in most records, active means well fitted inhibition curve with a large enough effect; inconclusive means small, poorly fitted or top-dose-only effect, or another doubt; inactive means no such curve, though single readings can be large or run the other way. Where the call is inconclusive, the potency comes from a doubtful curve fit.
# Molecular target: Polyunsaturated fatty acid lipoxygenase ALOX12 (Homo sapiens) (UniProt P18054)
# Assay: Primary qHTS assay for inhibitors of human arachidonate 12S-lipoxygenase (ALOX12): Round 2
# Conditions: purified 12hLO, xylenol orange hydroperoxide absorbance; activity change, negative = inhibition: at 108 µM (top of the series) unless noted
# How it was run: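 Purified human 12hLO (150 nM final) in 25 mM Hepes, 0.01% Triton X-100, pH 7.0 was preincubated 15 min at room temperature with compound. Then 40 uM arachidonic acid was added, 30 min. Hydroperoxide was read by Fe-XO absorbance ratio 573/405 nm.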
# On the % scale 0 is the no-effect control and ±100 the full control effect; potency means the concentration at half of the fitted maximal effect.
Structure (SMILES),Potency,"activity change, negative = inhibition"
Cn1cc(C(C(=O)O)N2CCN(c3ccc(Cl)cc3)CC2)c2cc(C(=O)O)ccc21 (stereo unspecified),"inconclusive: 89.1 µM [inhibitor, partial curve, poor fit]",–
CCN(CC)Cc1nc(C2(O)CCN(CC(C)C)CC2)cs1,"inconclusive: 126 µM [inhibitor, partial curve, poor fit]",–
O=[N+]([O-])c1cc(-n2cnnn2)ccc1N1CCC(Cc2ccccc2)CC1,–,inactive: -21.8%
c1ccc([C@@H]2C[C@H]2c2nc(C3CCOCC3)n[nH]2)cc1,–,inactive: 39.4%
COc1cccc(-n2nnc3c(=O)n(Cc4cccc(F)c4)cnc32)c1,–,inactive: -18.2%
O=C(CSc1ncc(C(F)(F)F)cc1Cl)N1CCNC1=O,–,inactive: 89.1%
Cc1ccc(OCCn2cnc3ccccc3c2=O)c([N+](=O)[O-])c1,–,inactive: -19.6%
CCOC(=O)N1CCN(CC(=O)N2c3ccccc3CCc3ccccc32)CC1,–,inactive: -20.1%
O=C(NCc1ccccc1)c1c(Cl)nc(Cl)c(Cl)c1Cl,–,inactive: 0%
CCCN(CCC)CCCNc1ccc2nnc(-c3ccc(F)cc3)n2n1,"inconclusive: 7.94 µM [inhibitor, partial curve, poor fit]",–
CC(=O)NC(c1ccccc1)c1nc(-c2cccc(C(C)C)c2)cs1 (stereo unspecified),"inconclusive: 50.1 µM [inhibitor, partial curve, poor fit]",–
COC(=O)[C@@H]1Cc2c([nH]c3ccccc23)[C@H]2C[C@@H](NCc3ccccc3)C[C@@H](c3ccccc3F)N21,"inconclusive: 44.7 µM [inhibitor, partial curve]",–
Cc1ccc(S(=O)(=O)NC(=S)c2ccccc2)cc1,"inconclusive: 112 µM [inhibitor, single point]",–
Cc1ccc(O)c(C(=O)c2cc(C#N)c(=O)n(Cc3ccccc3)c2)c1,–,inactive: -14.8%
CC1(C)OC(=O)C2=C(C[C@@H](CCc3ccccc3)O[C@H]2C2CCCC2)O1,"inconclusive: 79.4 µM [inhibitor, single point]",–
CC(Oc1cccc(Cl)c1)C(=O)Nc1ccc2c(N3CCOCC3)ncnc2c1 (stereo unspecified),–,inactive: -13%
CCCc1ccc(C(=O)NNc2cc(Cl)ccc2Cl)cc1,"inconclusive: 22.4 µM [inhibitor, full curve]",–
Cc1cc(OCCOCCNCc2ccccc2)ccc1C(C)C,"inconclusive: 2.82 µM [inhibitor, full curve]",–
Cc1ccc(S(=O)(=O)NCC(=O)O)cc1C,"inconclusive: 39.8 µM [inhibitor, partial curve, poor fit]",–
CS(=O)(=O)N1CCc2cc(C(=O)c3cc4cc(Br)ccc4o3)ccc21,"inconclusive: 39.8 µM [inhibitor, partial curve, poor fit]",–
CC1CCN(C(=O)CC2Sc3ncccc3N(C)C2=O)CC1 (stereo unspecified),–,inactive: 42.6%
O=C(NCc1ccccn1)c1ccc(COc2ccc(Cl)cc2)o1,–,inactive: 2.45%
O=C1N(CCc2ccccc2)CCOC12CCN(Cc1ccc3c(c1)CCO3)CC2,"inconclusive: 112 µM [inhibitor, partial curve, poor fit]",–

# Arranged by number of heavy atoms (rising): 3 of the compounds above.
Structure (SMILES),Potency,"activity change, negative = inhibition"
CC(=O)NC(c1ccccc1)c1nc(-c2cccc(C(C)C)c2)cs1 (stereo unspecified),"inconclusive: 50.1 µM [inhibitor, partial curve, poor fit]",–
CC1(C)OC(=O)C2=C(C[C@@H](CCc3ccccc3)O[C@H]2C2CCCC2)O1,"inconclusive: 79.4 µM [inhibitor, single point]",–
COC(=O)[C@@H]1Cc2c([nH]c3ccccc23)[C@H]2C[C@@H](NCc3ccccc3)C[C@@H](c3ccccc3F)N21,"inconclusive: 44.7 µM [inhibitor, partial curve]",–

# Next entries follow.

Structure (SMILES),Potency,"activity change, negative = inhibition"
COc1ccc(/C=C/C(=O)c2cccc(-n3cnnn3)c2)cc1O,"inconclusive: 100 µM [inhibitor, partial curve, poor fit]",–
C=CCN1C(=O)/C(=c2\sc3nc(=O)c(Cc4ccccc4Cl)nn3c2=O)c2ccccc21,"inconclusive: 7.94 µM [inhibitor, full curve, poor fit]",–
O=C(NNc1ccccc1)Nc1ccccc1F,"inconclusive: 39.8 µM [inhibitor, partial curve, poor fit]",–
O=c1c2c(CO)c(-c3ccc(F)cc3)nn2ccn1Cc1cc(F)ccc1F,–,inactive: 46%
S=c1[nH]nc(-c2ccc(Cl)cc2Cl)n1-c1ccc(Cl)cc1,active: 12.6 µM,–
Cn1cccc1C(=O)N1CCC2(CCN(Cc3nccs3)CC2)CC1,"inconclusive: 1 µM [inhibitor, full curve, poor fit]",–
Cc1c(OCC(=O)NCC2CCC(C(=O)O)CC2)ccc2c3c(c(=O)oc12)CCC3 (stereo unspecified),–,inactive: -8.42%
CCOc1ccccc1NC(=O)COC(=O)c1cnc(C)cn1,"inconclusive: 35.5 µM [inhibitor, partial curve, poor fit]",–
Cc1ccc(NC(=O)CSCC(=O)N2CCN(C(=O)c3ccco3)CC2)cc1,"inconclusive: 35.5 µM [inhibitor, single point]",–
C=CC[C@H](CC(=O)N(CCO)Cc1ccccc1)C(=O)NCCOC(=O)[C@H](CC=C)CC(=O)OC(C)(C)C,"inconclusive: 100 µM [inhibitor, partial curve, poor fit]",–
O=C(O)c1ccc(Nc2nc(-c3cc4ccccc4oc3=O)cs2)cc1O,active: 39.8 µM,–
CCn1c(SCC(=O)NC2CC2)nnc1-c1ccncc1,–,inactive: 0%
COC(=O)c1cnc(NNS(=O)(=O)c2ccc(Cl)cc2)nc1C(F)(F)F,"inconclusive: 100 µM [inhibitor, single point]",–
COc1ccccc1C(=O)NC(=S)/C=C1/N(C)c2ccccc2C1(C)C,active: 28.2 µM,–
CCN(CC)S(=O)(=O)c1cc(NS(=O)(=O)c2ccc3ccccc3c2)ccc1C,"inconclusive: 2.24 µM [inhibitor, full curve, poor fit]",–
O=C1CC(N2CCC(c3nc4ccccc4[nH]3)CC2)C(=O)N1c1ccccc1F (stereo unspecified),–,inactive: -17.9%
COc1ccc(C2c3c(n(C)c4ccccc34)C(=O)N2CC(=O)Nc2ccccc2F)cc1 (stereo unspecified),–,inactive: -14.9%
O=C(C1CCCC1)N1Cc2ccccc2CC2(CCCCN2CC2CCNCC2)C1 (stereo unspecified),"inconclusive: 4.47 µM [inhibitor, full curve]",–
COc1ccc2c(c1)sc1ncc(C(=O)NCc3cccc(Cl)c3)c(=O)n12,–,inactive: 1.28%
COCCn1c(CO)nnc1C1CC(NC(=O)c2c(C)noc2C)C1 (stereo unspecified),–,inactive: -6.1%
Cc1ccc(-c2nnc3ccc(SCC(=O)NCc4ccco4)nn23)cc1,–,inactive: -20.1%
Cc1ccc(CCNC(=O)c2ccc(CSCc3ccccc3Cl)o2)cc1,"inconclusive: 112 µM [inhibitor, partial curve, poor fit]",–
COc1ccc(N2CCC(CNC(=S)Nc3ccc(C)cc3C)C2)cc1 (stereo unspecified),"inconclusive: 56.2 µM [inhibitor, partial curve, poor fit]",–
